Changes are numbered by the printed parent chain. Read-outs that look alike come from different tables or passages of the source. Results are given in words; binding and its absence hold for the method and conditions named. Binding seen in cells or lysates may run through a third protein. Binding calls can cover weak binding; strength is not graded here. For some of these results: Where a sequence is shown, tags or fusion partners need not be part of it.
Legend:
[1] = biological target: FLS2-YFP^N (Arabidopsis thaliana) (UniProt Q9FL28); test: split reporter
[2] = biological target: T1, CERK1-YFP^N (Arabidopsis thaliana) (UniProt A8R7E6); test: split reporter
T1 sequence: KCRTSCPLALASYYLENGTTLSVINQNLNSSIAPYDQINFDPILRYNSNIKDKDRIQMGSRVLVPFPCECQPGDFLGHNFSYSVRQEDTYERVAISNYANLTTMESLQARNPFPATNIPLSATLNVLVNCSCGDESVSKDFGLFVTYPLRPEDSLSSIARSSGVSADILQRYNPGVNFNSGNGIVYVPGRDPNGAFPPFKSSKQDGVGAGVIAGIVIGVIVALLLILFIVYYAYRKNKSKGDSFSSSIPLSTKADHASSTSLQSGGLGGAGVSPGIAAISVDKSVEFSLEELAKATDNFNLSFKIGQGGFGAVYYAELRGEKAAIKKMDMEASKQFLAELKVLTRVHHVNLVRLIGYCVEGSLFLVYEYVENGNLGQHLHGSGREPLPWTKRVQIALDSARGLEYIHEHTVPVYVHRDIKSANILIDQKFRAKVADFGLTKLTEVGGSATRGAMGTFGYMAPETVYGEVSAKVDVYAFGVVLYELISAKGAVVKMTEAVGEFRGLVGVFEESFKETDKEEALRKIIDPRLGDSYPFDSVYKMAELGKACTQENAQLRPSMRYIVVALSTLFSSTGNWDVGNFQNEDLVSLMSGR

By UniProt entry, the sequences of proteins in these tests, tags left out. Where a name states a change or a piece, a line headed by the entry shows the natural chain unless it says otherwise. Residues count along the entry.
UniProt Q9FL28, residues 24-1173: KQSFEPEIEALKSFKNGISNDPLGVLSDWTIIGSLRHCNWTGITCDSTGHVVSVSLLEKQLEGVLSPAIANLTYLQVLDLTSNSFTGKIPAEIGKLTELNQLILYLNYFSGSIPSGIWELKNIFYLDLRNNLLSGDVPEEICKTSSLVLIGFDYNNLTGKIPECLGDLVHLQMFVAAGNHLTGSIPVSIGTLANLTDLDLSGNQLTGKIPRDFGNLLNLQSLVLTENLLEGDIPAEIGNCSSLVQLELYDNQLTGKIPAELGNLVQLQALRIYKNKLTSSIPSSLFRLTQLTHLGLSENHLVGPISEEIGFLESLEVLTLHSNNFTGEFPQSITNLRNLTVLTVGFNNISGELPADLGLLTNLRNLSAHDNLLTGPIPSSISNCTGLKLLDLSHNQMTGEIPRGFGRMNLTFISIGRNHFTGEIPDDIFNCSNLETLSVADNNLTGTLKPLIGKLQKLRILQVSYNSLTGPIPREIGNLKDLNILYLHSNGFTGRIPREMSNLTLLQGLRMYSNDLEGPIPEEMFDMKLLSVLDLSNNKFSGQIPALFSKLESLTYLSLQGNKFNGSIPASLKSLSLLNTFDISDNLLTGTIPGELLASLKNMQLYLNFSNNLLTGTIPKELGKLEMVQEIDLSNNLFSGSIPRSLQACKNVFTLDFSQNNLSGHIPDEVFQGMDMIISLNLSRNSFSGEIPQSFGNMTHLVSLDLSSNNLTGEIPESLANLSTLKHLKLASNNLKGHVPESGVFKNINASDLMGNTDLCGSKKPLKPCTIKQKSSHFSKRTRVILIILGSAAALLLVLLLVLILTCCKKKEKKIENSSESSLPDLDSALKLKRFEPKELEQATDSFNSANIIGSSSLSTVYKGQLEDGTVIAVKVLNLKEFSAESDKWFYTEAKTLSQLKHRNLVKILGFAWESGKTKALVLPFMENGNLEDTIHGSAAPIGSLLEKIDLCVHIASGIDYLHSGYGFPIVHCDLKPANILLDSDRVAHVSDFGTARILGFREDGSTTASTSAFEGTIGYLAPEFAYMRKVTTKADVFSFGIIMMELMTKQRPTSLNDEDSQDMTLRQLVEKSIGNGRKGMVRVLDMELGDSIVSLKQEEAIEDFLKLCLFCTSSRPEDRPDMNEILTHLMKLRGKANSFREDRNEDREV
UniProt Q8VYS8: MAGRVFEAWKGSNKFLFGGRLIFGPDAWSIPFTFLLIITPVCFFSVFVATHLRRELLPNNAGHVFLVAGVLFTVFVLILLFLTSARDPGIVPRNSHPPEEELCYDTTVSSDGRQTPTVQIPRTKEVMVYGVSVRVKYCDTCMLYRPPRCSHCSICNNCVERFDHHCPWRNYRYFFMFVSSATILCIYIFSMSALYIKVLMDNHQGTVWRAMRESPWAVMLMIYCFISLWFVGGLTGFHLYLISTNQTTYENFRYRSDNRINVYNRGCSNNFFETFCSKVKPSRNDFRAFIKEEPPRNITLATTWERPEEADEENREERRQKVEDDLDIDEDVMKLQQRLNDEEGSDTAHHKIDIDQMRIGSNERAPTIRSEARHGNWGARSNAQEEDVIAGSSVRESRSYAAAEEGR
UniProt Q9M306: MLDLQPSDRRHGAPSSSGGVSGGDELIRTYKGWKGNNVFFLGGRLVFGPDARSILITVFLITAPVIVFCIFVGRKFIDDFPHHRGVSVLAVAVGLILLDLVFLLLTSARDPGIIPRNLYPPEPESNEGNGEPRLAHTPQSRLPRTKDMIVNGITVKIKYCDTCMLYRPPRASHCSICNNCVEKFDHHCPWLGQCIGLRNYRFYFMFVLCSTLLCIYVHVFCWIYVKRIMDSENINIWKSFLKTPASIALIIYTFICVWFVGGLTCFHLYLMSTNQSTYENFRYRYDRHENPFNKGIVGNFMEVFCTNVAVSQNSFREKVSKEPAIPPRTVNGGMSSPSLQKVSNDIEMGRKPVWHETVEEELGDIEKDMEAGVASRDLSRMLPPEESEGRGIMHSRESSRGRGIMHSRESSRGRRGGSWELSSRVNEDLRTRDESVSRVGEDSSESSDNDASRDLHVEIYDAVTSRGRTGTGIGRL

[3] = biological target: T2, P2K1-YFP^N (Arabidopsis thaliana) (UniProt Q9LSR8); test: split reporter
T2 sequence: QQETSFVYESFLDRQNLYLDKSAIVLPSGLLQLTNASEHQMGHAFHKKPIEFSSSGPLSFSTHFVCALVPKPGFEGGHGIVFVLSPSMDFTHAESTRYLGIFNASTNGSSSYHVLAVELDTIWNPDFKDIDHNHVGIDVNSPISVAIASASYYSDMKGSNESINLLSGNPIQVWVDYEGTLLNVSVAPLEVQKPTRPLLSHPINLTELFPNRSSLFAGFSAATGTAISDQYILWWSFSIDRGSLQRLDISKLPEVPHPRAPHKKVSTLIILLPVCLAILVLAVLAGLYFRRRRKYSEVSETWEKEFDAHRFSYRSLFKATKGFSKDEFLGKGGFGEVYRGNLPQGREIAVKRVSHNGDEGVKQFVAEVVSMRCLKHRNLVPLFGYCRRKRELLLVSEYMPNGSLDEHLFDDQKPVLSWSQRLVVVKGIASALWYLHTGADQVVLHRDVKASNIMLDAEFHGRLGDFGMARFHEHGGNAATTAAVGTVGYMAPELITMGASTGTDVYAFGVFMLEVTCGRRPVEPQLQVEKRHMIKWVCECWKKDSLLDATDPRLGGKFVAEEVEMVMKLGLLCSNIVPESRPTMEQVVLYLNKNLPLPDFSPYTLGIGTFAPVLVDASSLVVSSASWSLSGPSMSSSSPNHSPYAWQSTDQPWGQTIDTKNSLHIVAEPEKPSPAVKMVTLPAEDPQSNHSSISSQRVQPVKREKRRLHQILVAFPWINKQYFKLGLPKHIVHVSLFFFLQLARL

[4] = biological target: T3, FLOT1 (split-luciferase fusion, LCI) (Arabidopsis thaliana) (UniProt Q501E6); test: split reporter
T3 sequence: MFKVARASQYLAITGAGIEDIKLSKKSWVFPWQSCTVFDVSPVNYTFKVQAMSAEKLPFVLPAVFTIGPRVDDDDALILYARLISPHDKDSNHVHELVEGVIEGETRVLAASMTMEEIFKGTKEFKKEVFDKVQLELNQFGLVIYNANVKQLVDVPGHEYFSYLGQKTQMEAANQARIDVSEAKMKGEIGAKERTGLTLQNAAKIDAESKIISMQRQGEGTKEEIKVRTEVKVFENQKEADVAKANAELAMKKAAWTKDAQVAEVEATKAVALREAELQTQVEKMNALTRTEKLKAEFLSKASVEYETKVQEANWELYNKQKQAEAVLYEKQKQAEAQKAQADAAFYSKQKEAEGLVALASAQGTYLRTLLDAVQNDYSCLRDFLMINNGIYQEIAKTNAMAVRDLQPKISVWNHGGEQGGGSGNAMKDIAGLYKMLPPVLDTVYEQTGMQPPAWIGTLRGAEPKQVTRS

[5] = biological target: T4, kinase dead version CERK1 (D441A) (split-luciferase fusion, LCI) (Arabidopsis thaliana) (UniProt A8R7E6); test: split reporter
T4 sequence: T1 sequence with D418A

[6] = biological target: FLS2 (split-luciferase fusion, LCI) (Arabidopsis thaliana) (UniProt Q9FL28); test: split reporter
[7] = biological target: T5, P2K1 (split-luciferase fusion, LCI) (Arabidopsis thaliana) (UniProt Q9LSR8); test: split reporter
T5 sequence: T2 sequence

[8] = biological target: PAT9 (split-luciferase fusion, LCI) (Arabidopsis thaliana) (UniProt Q8VYS8); test: split reporter
[9] = biological target: PAT9-YFP^C (Arabidopsis thaliana) (UniProt Q8VYS8); test: split reporter
[10] = biological target: T6, P2K1-HA (Arabidopsis thaliana) (UniProt Q9LSR8); test: co-IP
T6 sequence: T2 sequence

[11] = biological target: T6, P2K1-HA (Arabidopsis thaliana); test: co-IP; remark: listed apart in the source
[12] = biological target: PAT9-HA (NP::ATPAT9/Atpat9) (Arabidopsis thaliana) (UniProt Q8VYS8); test: co-IP
[13] = biological target: PAT5-HA (NP::ATPAT5/Atpat5) (Arabidopsis thaliana) (UniProt Q9M306); test: co-IP
[14] = biological target: PAT9-HA (NP::ATPAT9/Atpat9) (Arabidopsis thaliana) (UniProt Q8VYS8); test: co-IP; remark: listed apart in the source
[15] = biological target: PAT5-HA (NP::ATPAT5/Atpat5) (Arabidopsis thaliana) (UniProt Q9M306); test: co-IP; remark: listed apart in the source
[16] = biological target: PAT9-HA (NP::ATPAT9/Atpat9) (Arabidopsis thaliana) (UniProt Q8VYS8); test: co-IP; remark: listed apart in the source
[17] = biological target: PAT5-HA (NP::ATPAT5/Atpat5) (Arabidopsis thaliana) (UniProt Q9M306); test: co-IP; remark: listed apart in the source

With “PAT9-YFP^C (from UniProt Q8VYS8) (enzyme)” the binding [1] was “binds”, the binding [2] was “binds” and the binding [3] was “binds”.

For “PAT5 (split-luciferase fusion, LCI) (from UniProt Q9M306) (enzyme)”, the binding [4] was “binds”, the binding [5] was “binds” and the binding [6] was “binds”. For the same molecule, the binding [7] was “binds” and the binding [8] was “binds”.

“PAT5-YFP^C (from UniProt Q9M306) (enzyme)” was tested, and the binding [1] was “binds”, the binding [2] was “binds” and the binding [9] was “binds”. For the same molecule, the binding [3] was “binds”.

With “PAT9 (split-luciferase fusion, LCI) (from UniProt Q8VYS8) (enzyme)” the binding [4] was “binds”, the binding [5] was “binds” and the binding [6] was “binds”. The binding [7] was “binds”.

With PAT5-Myc (from UniProt Q9M306) (enzyme) the binding [10] was “binds” and the binding [11] was “binds weakly”.

With “endogenous FLS2 (from UniProt Q9FL28 24-1173) (receptor)” the binding [12] was “binds weakly”, the binding [13] was “binds weakly” and the binding [14] was “binds”. The binding [15] was “binds”.

In the case of PAT9-Myc (from UniProt Q8VYS8) (enzyme), the binding [10] is reported as “binds” and the binding [11] is reported as “binds weakly”.

B1: endogenous CERK1 (receptor, UniProt A8R7E6 24-617)
chain: T1 sequence
With B1 the binding [16] was “binds”, the binding [17] was “binds” and the binding [12] was “binds weakly”. The binding [13] was “binds weakly”.

From doi:10.1101/720482
